The target in experiment [1] is MIL-38 antigen (GPC-1) as present in DU-145 and other cell lines (UniProt P35052). Description: immunofluorescence assay on DU145 cells.
Experiment [2] has the same target. Description: immunofluorescence assay on cell lines.
Experiment [3] has the same target. Kind of experiment: Western blot on MPEK extracts of cell lines (FIG. 1). On the technique in general: A western blot detects proteins with antibodies after separation by electrophoresis.
The target is the same in experiment [4]. Kind of experiment: immunofluorescence assay on PZHPV7 cells.
The target is the same in experiment [5]. Kind of experiment: immunofluorescence assay on RWPE1 cells.
The target is the same in experiment [6]. Description: immunofluorescence assay on T24 cells.
The target is the same in experiment [7]. Description: immunofluorescence assay on DU-145 cells (FIG. 5A).
For experiment [8], the target named is recombinant human GPC-1 produced from NS0 cells (human) (UniProt P35052). Description: sandwich ELISA, antibody coated as capture, biotinylated AM-4 clone IF5 as detection (FIG. 6B). For orientation: An ELISA detects its analyte on a solid surface through an enzyme-linked reagent.

The chains behind the UniProt entries cited, without tags or fusion partners. Residues count along the entry.
UniProt P35052, residues 24-530: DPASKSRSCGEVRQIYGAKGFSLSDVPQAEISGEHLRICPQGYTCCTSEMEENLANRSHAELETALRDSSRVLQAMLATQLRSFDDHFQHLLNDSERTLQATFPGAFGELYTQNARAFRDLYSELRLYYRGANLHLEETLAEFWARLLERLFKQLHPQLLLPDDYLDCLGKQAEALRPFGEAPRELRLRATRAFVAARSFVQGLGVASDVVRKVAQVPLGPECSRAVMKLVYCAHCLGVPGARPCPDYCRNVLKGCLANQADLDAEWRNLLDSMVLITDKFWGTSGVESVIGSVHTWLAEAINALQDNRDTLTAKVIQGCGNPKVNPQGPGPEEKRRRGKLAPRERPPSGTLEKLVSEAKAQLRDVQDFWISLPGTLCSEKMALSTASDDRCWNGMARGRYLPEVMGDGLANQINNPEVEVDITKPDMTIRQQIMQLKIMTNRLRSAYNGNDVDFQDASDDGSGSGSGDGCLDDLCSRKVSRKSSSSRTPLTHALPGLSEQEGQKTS

These are yes or no findings as the source states them, for the method shown. Some entries that bind do so weakly or less than the wild type.

B1: MIL-38 antibody preparation “Original” (1-O) from ATCC HB11785 hybridoma cells (antibody, mouse IgG1, kappa, V domains shown)
VH: QIQLVQSGPELKKPGETVKISCKASGYAFTDYSMNWVKQAPGKGLRWMGWINTETGEPTYTDDFKGRFAFSLETSASTAFLQINNLRNEDTATYFCARHYDYGGFPYWGQGTLVTVSA
VL: DIQMTQSPASLSASVGETVTITCRASGNVHNYLAWYQQKQGKSPQLLVYTAKTLADGVPSRFSGSGSGTQYSLKINSLQPEDFGTYYCQHFWSNPWTFGGGTKLEIKR
For the molecule B1, the binding result in experiment [1], in experiment [2], in experiment [3], in experiment [4], in experiment [5] and in experiment [6] was “binds” throughout.

B2: MIL-38 antibody preparation Alfio I (antibody, mouse IgG1, kappa, V domains shown)
VH: QIQLVQSGPELKKPGETVKISCKASGYAFTDYSMNWVKQAPGKGLRWMGWINTETGEPTYTDDFKGRFAFSLETSASTAFLQINNLRNEDTATYFCARHYDYGGFPYWGQGTLVTVSA
VL: DIQMTQSPASLSASVGETVTITCRASGNVHNYLAWYQQKQGKSPQLLVYTAKTLADGVPSRFSGSGSGTQYSLKINSLQPEDFGTYYCQHFWSNPWTFGGGTKLEIKR
For the molecule B2, the binding result in experiment [7] was “binds”.

B3: MIL-38 AM-4 clone IF5 (antibody, mouse IgG1, kappa, V domains shown)
VH: QIQLVQSGPELKKPGETVKISCKASGYAFTDYSMNWVKQAPGKGLRWMGWINTETGEPTYTDDFKGRFAFSLETSASTAFLQINNLRNEDTATYFCARHYDYGGFPYWGQGTLVTVSA
VL: DIQMTQSPASLSASVGETVTITCRASGNVHNYLAWYQQKQGKSPQLLVYTAKTLADGVPSRFSGSGSGTQYSLKINSLQPEDFGTYYCQHFWSNPWTFGGGTKLEIKR
For the molecule B3, the binding entry in experiment [8] is given as “binds”.

The values are drawn from patent US20180072803A1.
